Source: PMC11260166
Results are given in words; binding and its absence hold for the method and conditions named. Binding seen in cells or lysates may run through a third protein. Some binding calls cover weakened binding; strength is not graded here. Tags and fused reporters may be left off the sequences shown.

Target: EGFP-FAM110A-WT (human) (UniProt Q9BQ89)
Experiment: pull-down; EGFP-FAM110A pulled down FAM110A-FLAG; no figure or method pointed to

B1: EGFP-FAM110A-WT (protein, UniProt Q9BQ89 1-295)
chain: MPVHTLSPGAPSAPALPCRLRTRVPGYLLRGPADGGARKPSAVERLEADKAKYVKSLHVANTRQEPVQPLLSKQPLFSPETRRTVLTPSRRALPGPCRRPQLDLDILSSLIDLCDSPVSPAEASRTPGRAEGAGRPPPATPPRPPPSTSAVRRVDVRPLPASPARPCPSPGPAAASSPARPPGLQRSKSDLSERFSRAAADLERFFNFCGLDPEEARGLGVAHLARASSDIVSLAGPSAGPGSSEGGCSRRSSVTVEERARERVPYGVSVVERNARVIKWLYGLRQARESPAAEG
binding: binds
